# In all, about 300,000 compounds went through this assay and about 5,400 (1.8%) were called active. Inconclusive results, whose numbers are uncertain, are shown with a selection of clear calls. The call rests on the fitted dose curve; tested in HEK293 cells. Where the call is inconclusive, the potency comes from a doubtful curve fit.
# Assay: qHTS for inhibitors of binding or entry into cells for Marburg Virus
# Details: Marburg virus pseudotyped entry inhibition, cell reporter; activity change, negative = inhibition: at 37.8 µM (top of the series) unless noted
# On the % scale 0 is the no-effect control and ±100 the full control effect; potency means the concentration at half of the fitted maximal effect.
SMILES,Potency,"activity change, negative = inhibition"
CCc1ccc(C(=O)NN(C(=O)c2ccc(CC)cc2)C(C)(C)C)cc1,"inconclusive: 5.01 µM [inhibitor, full curve, poor fit]",
CC(C)C1Nc2ccc(C(=O)NC3CCCCC3)cc2NC1=O (configuration not stated),"inconclusive: 17.8 µM [activator, partial curve, poor fit]",
Cc1cc(/C=N\NC(=O)c2cccs2)c(C)n1-c1ccc2ncccc2c1,"inconclusive: 12.6 µM [inhibitor, single point]",
CCOC(=O)COc1cc2c3c(c(=O)oc2cc1C)CCCC3,,inactive: -0.152%
Cc1ccc(NC(=S)NNC(=O)CSc2nc3ccccc3c(=O)n2-c2ccc(C)cc2)cc1,,inactive: -41.5%
Cc1ccc(-c2nc(CS(=O)CC(=O)NCCCN3CC(C)CC(C)C3)c(C)o2)cc1 (configuration not stated),,inactive: 0.169%
COc1ccc(Nc2nc(N)c3cc(OC)c(OC)cc3n2)cc1,active: 11.2 µM,
Brc1c(NC2=NCCN2)ccc2nccnc12,"inconclusive: 25.1 µM [inhibitor, single point]",
Cc1cc(NC(=O)COc2coc(CN3CCN(c4ccccc4)CC3)cc2=O)no1,"inconclusive: 6.31 µM [inhibitor, single point]",
COc1ccc(-n2c(C(C)n3nc(C)c([N+](=O)[O-])c3C)n[nH]c2=S)cc1 (configuration not stated),,inactive: 4.19%
Cc1[nH]c2ccccc2c1SCCNC(=O)c1ccc(S(=O)(=O)N2CCCC2)cc1,,inactive: -24.3%
CCN(CC)CCCN=C1N[C@@H](c2ccccc2)C(C(=O)OC)=C(C)N1CC,"inconclusive: 0.0841 µM [inhibitor, partial curve, poor fit]",
CC(=O)c1ccc(OCc2cc(C(=O)N3CCCCCCC3)no2)cc1,"inconclusive: 3.16 µM [activator, partial curve]",
CCCn1nc(NC(=O)c2ccco2)c2cc3ccccc3nc21,"inconclusive: 20.6 µM [inhibitor, single point]",
CN(C(=O)CSCC(=O)O)C1CCCCC1,"inconclusive: 0.316 µM [inhibitor, partial curve, poor fit]",
Cc1cccc(N=C2NC(=O)/C(=C/C=C/c3ccco3)S2)c1,"inconclusive: 0.517 µM [activator, single point]",
CNC(=O)/C(C#N)=C/c1c(N(Cc2ccccc2)Cc2ccccc2)nc2c(C)cccn2c1=O,"inconclusive: 35.5 µM [inhibitor, partial curve, poor fit]",
COc1ccc(C)cc1N(C(=O)c1snc(C(N)=O)c1N)C(C(=O)NC1CCCC1)c1ccc(F)cc1 (configuration not stated),"inconclusive: 11.2 µM [inhibitor, partial curve, poor fit]",
Cc1ccc(C(C(=O)Nc2ccc(C(C)C)cc2)N(C)C(=O)c2ccc(=O)[nH]c2)cc1 (configuration not stated),"inconclusive: 6.31 µM [inhibitor, full curve, poor fit]",
CCOc1ccc(/C=C2/Sc3ccc(C(=O)N4CCOCC4)cc3N(C)C2=O)cc1OC,"inconclusive: 11.2 µM [inhibitor, single point]",
CN(Cc1ccccc1)C(=S)NC(=O)c1cccs1,"inconclusive: 8.91 µM [inhibitor, partial curve]",
CCOC(=O)c1c(C)sc2c1N(C(=O)CN1CCOCC1)c1cc(Cl)ccc1S2,"inconclusive: 3.16 µM [inhibitor, partial curve, poor fit]",
Nc1c(C(=O)NCc2ccco2)c2nc3ccccc3nc2n1CCc1ccc(F)cc1,"inconclusive: 2.24 µM [inhibitor, single point]",

SMILES,Potency,"activity change, negative = inhibition"
COc1ccc(C(=O)N2CCCC(c3nc(-c4ccc(OC)c(OC)c4)no3)C2)c(OC)c1 (configuration not stated),"inconclusive: 0.126 µM [inhibitor, full curve, poor fit]",
O=[N+]([O-])c1ccccc1OCCCN1CCc2ccccc2C1,,inactive: -0.916% [at 46.1 µM]
COc1ccc(-c2noc(CN(C)C(=O)c3ccoc3C)n2)cc1,"inconclusive: 22.4 µM [inhibitor, single point]",
Cc1ccccc1NS(=O)(=O)c1ccc(C2CNC(=O)C2)cc1 (configuration not stated),"inconclusive: 32.6 µM [inhibitor, single point]",
Cc1ccc(C(=O)/C=C/Nc2ccc(S(=O)(=O)Nc3onc(C)c3C)cc2)cc1,"inconclusive: 6.51 µM [activator, partial curve]",
COc1cc(/C=C(\C#N)c2nc3ccccc3[nH]2)ccc1OCc1cccc(C(F)(F)F)c1,"inconclusive: 3.98 µM [inhibitor, single point]",
COc1ccc(NC2CCCN(C(=O)CCCn3cncn3)C2)cc1OC (configuration not stated),"inconclusive: 14.1 µM [activator, partial curve, poor fit]",
CN1CCCC2(CCCN(Cc3nc(Cc4cccc(C(F)(F)F)c4)no3)C2)C1 (configuration not stated),"inconclusive: 14.1 µM [inhibitor, single point]",
Cc1cccc(C(=O)N2CCc3c([nH]c4ccccc34)C2CC(C)C)n1 (configuration not stated),"inconclusive: 35.5 µM [inhibitor, single point]",
COc1ccccc1N1CCN(CC(=O)c2ccc3ccn(C(C)=O)c3c2)CC1,,inactive: -3.11%
O=c1sc2ccccc2c(N2CCOCC2)c1[N+](=O)[O-],,inactive: 2.76%
Cc1cc(C)n2c(SCC(=O)NC3CCCC(C)C3C)nnc2n1 (configuration not stated),"inconclusive: 0.562 µM [inhibitor, full curve, poor fit]",
COC(=O)c1oc2ccccc2c1NC(=O)c1ccccc1O,,inactive: -9.12% [at 14.2 µM]
Cc1nn(-c2ccc(F)cc2)c(C)c1NS(=O)(=O)c1ccc(Cl)cc1,"inconclusive: 12.6 µM [inhibitor, partial curve, poor fit]",
CC(C)=CC(=O)Nc1nnc(-c2ccccc2C)s1,"inconclusive: 25.1 µM [activator, partial curve, poor fit]",
O=S(=O)(/C=C/C=C/S(=O)(=O)c1ccccc1)c1ccccc1,"inconclusive: 7.08 µM [inhibitor, full curve, poor fit]",
OCCC1CN(Cc2cccn2-c2cccnc2)CCN1Cc1ccccc1 (configuration not stated),"inconclusive: 3.98 µM [inhibitor, partial curve, poor fit]",
Cc1ccc(/C=N/Nc2ncc(Cl)cc2Cl)s1,"inconclusive: 29.1 µM [inhibitor, single point]",
COc1cc(C2N=C(c3ccccc3)NO2)cc(Br)c1O (configuration not stated),,inactive: 9.03%
Cc1ccc(S(=O)(=O)N2CCOCC2)cc1C(=O)OC(C)C(=O)c1ccccc1 (configuration not stated),,inactive: -28.4% [at 46.1 µM]
Cc1noc(/C=C/c2cccs2)c1S(=O)(=O)N1CCC(C(=O)NCc2ccccc2Cl)CC1,,inactive: -8.2% [at 46.1 µM]
O=C(O)CSc1nnc(COc2ccc([N+](=O)[O-])cc2)n1-c1ccccc1,"inconclusive: 0.562 µM [activator, full curve, poor fit]",
CCOC(=O)CN1C(=O)N[C@@H](c2ccccc2)[C@H](C(C)=O)[C@H]1C,inactive,

# Copied from the list.
# For Potency, CNC(=O)/C(C#N)=C/c1c(N(Cc2ccccc2)Cc2ccccc2)nc2c(C)cccn2c1=O has the entry inconclusive: 35.5 µM [inhibitor, partial curve, poor fit]
# For Potency, Cc1ccc(C(=O)/C=C/Nc2ccc(S(=O)(=O)Nc3onc(C)c3C)cc2)cc1 has the entry inconclusive: 6.51 µM [activator, partial curve]
# For activity change, negative = inhibition, Cc1noc(/C=C/c2cccs2)c1S(=O)(=O)N1CCC(C(=O)NCc2ccccc2Cl)CC1 has the entry inactive: -8.2% [at 46.1 µM]
# For Potency, COc1ccc(NC2CCCN(C(=O)CCCn3cncn3)C2)cc1OC (configuration not stated) has the entry inconclusive: 14.1 µM [activator, partial curve, poor fit]

# Next part.

SMILES,Potency,"activity change, negative = inhibition"
NS(=O)(=O)c1ccc(NC(=O)/C=C/c2ccc3c(c2)OCO3)cc1,"inconclusive: 2 µM [inhibitor, full curve, poor fit]",
CN(C)/C=C(\C#N)c1nc2ccccc2[nH]1,,inactive: 23.5%
CC(/C=N/NC(=O)Cn1cnc2ccccc21)=C\c1ccccc1,,inactive: -13.8%
COC(=O)CN1C(=O)N/C(=C/c2ccc(OC)c(C)c2OC)C1=O,"inconclusive: 35.5 µM [inhibitor, single point]",
CCOc1ccc(S(=O)(=O)N2CCN(C(=O)c3oc4ccc(OC)cc4c3C)CC2)cc1,"inconclusive: 11.2 µM [inhibitor, single point]",
CC(NC(=O)c1ccccc1)C(=O)NC1CCCc2ccccc21 (configuration not stated),"inconclusive: 0.562 µM [activator, full curve, poor fit]",
COC(=O)NNC(=O)C1CCC(C(=O)NNC(=O)OC)CC1 (configuration not stated),"inconclusive: 1.12 µM [activator, single point]",
N#CC(C#N)=Cc1cccn1-c1ccc(S(N)(=O)=O)cc1,"inconclusive: 35.5 µM [inhibitor, partial curve, poor fit]",
O=C1C=C(Nc2ccc(F)cc2)c2ccccc2C1=O,"inconclusive: 35.5 µM [inhibitor, partial curve, poor fit]",
CC(C)(C)c1ccc(N=C2SCC(=O)N2Cc2cccs2)cc1,"inconclusive: 35.5 µM [inhibitor, single point]",
Cc1cc(Cl)c2ccccc2n1,,inactive: -0.28%
NNC(=O)c1oc2ccccc2c1-n1cccc1,"inconclusive: 11.2 µM [inhibitor, partial curve, poor fit]",
CC(C)c1nc2sc3c(SCC(=O)NCc4ccco4)ncnc3c2c2c1CCC2,"inconclusive: 11.2 µM [inhibitor, partial curve, poor fit]",
CCN(CC)C(=O)CSc1nc2cc(OC)c(OC)cc2c(=O)n1Cc1ccc(Cl)cc1,"inconclusive: 23.1 µM [inhibitor, single point]",
O=C1OC(=O)C2C1[C@@H]1CC[C@H]2O1 (some centres not stated),"inconclusive: 3.26 µM [activator, single point]",
COc1ccc(C2(O)C(=O)Nc3ccc(C)cc32)cc1 (configuration not stated),"inconclusive: 0.794 µM [inhibitor, single point]",
CC(C)(C)c1ccc(S(=O)(=O)N2CCC(N3CCCCC3)CC2)cc1,"inconclusive: 3.55 µM [activator, single point]",
CC(=O)n1c(-c2ccccc2)c(-c2ccccc2)n(C)c1=O,,inactive: -20.1%
O=C1C2ON(c3ccccc3)C(c3ccncc3)C2C(=O)N1c1ccc(N2CCOCC2)cc1 (configuration not stated),,inactive: -6.77%
CN(C)S(=O)(=O)c1ccc(C(=O)Nc2nnc(-c3ccco3)o2)cc1,,inactive: 6.53% [at 46.1 µM]
COc1cc(NC(=S)N2CCN(C(c3ccccc3)c3ccccc3)CC2)cc(OC)c1,"inconclusive: 35.5 µM [inhibitor, single point]",

# Source: PubChem BioAssay AID540276 (National Center for Advancing Translational Sciences (NCATS), 2011)
